In the supplement of paper PMC8728848:
The other results are listed elsewhere or left out.

Columns and labels:
Assay in all cases: glycan array binding signal (z-score within array); higher = stronger binding
Conditions in all cases: glycan notation: IUPAC condensed, linker removed
Fuc(a1-2)Gal = target: Fuc(a1-2)Gal
How it was run: (§1)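 Glycan array data were curated from 3228 arrays in the Consortium for Functional Glycomics database and kept only where the protein sequence was available. Glycan names were converted to IUPAC-condensed notation, and columns mapping to the same glycan were averaged. The binding signal is a within-array Z-score, averaged across arrays of the same protein sequence at different concentrations or buffers and across linkers. Negative Z-scores can be read as non-binding.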

Fuc(a1-2)Gal(b1-3)GalNAc = target: Fuc(a1-2)Gal(b1-3)GalNAc
How it was run: as §1

[1] = target: Fuc(a1-2)Gal(b1-3)GalNAc(a1-3)[Fuc(a1-2)]Gal(b1-4)Glc
How it was run: as §1

[2] = target: Fuc(a1-2)Gal(b1-3)GalNAc(a1-3)[Fuc(a1-2)]Gal(b1-4)GlcNAc
How it was run: as §1

[3] = target: Fuc(a1-2)Gal(b1-3)GalNAc(b1-3)Gal
How it was run: as §1

[4] = target: Fuc(a1-2)Gal(b1-3)GalNAc(b1-3)Gal(a1-4)Gal(b1-4)Glc
How it was run: as §1

[5] = target: Fuc(a1-2)Gal(b1-3)GalNAc(b1-4)[Neu5Ac(a2-3)]Gal(b1-4)Glc
How it was run: as §1

Fuc(a1-2)Gal(b1-3)GlcNAc = target: Fuc(a1-2)Gal(b1-3)GlcNAc
How it was run: as §1

[6] = target: Fuc(a1-2)Gal(b1-3)GlcNAc(b1-2)Man(a1-3)[Fuc(a1-2)Gal(b1-3)GlcNAc(b1-2)Man(a1-6)]Man(b1-4)GlcNAc(b1-4)GlcNAc
How it was run: as §1

[7] = target: Fuc(a1-2)Gal(b1-3)GlcNAc(b1-2)Man(a1-3)[Fuc(a1-2)Gal(b1-3)GlcNAc(b1-2)Man(a1-6)]Man(b1-4)GlcNAc(b1-4)[Fuc(a1-6)]GlcNAc
How it was run: as §1

[8] = target: Fuc(a1-2)Gal(b1-3)GlcNAc(b1-3)Gal(b1-4)Glc
How it was run: as §1

[9] = target: Fuc(a1-2)Gal(b1-3)GlcNAc(b1-3)GalNAc
How it was run: as §1

[10] = target: Fuc(a1-2)Gal(b1-3)GlcNAc(b1-3)[Fuc(a1-2)Gal(b1-3)GlcNAc(b1-6)]GalNAc
How it was run: as §1

[11] = target: Fuc(a1-2)Gal(b1-3)GlcNAc(b1-3)[Gal(b1-4)GlcNAc(b1-6)]Gal(b1-4)Glc
How it was run: as §1

[12] = target: Fuc(a1-2)Gal(b1-3)GlcNAc(b1-3)[Neu5Ac(a2-6)Gal(b1-4)GlcNAc(b1-6)]Gal(b1-4)Glc
How it was run: as §1

[13] = target: Fuc(a1-2)Gal(b1-3)GlcNAc6S
How it was run: as §1

[14] = target: Fuc(a1-2)Gal(b1-3)[Fuc(a1-4)]GlcNAc
How it was run: as §1

[15] = target: Fuc(a1-2)Gal(b1-3)[Fuc(a1-4)]GlcNAc(b1-2)Man(a1-3)[Fuc(a1-2)Gal(b1-3)[Fuc(a1-4)]GlcNAc(b1-2)Man(a1-3)]Man(b1-4)GlcNAc(b1-4)GlcNAc
How it was run: as §1

[16] = target: Fuc(a1-2)Gal(b1-3)[Fuc(a1-4)]GlcNAc(b1-2)Man(a1-3)[Fuc(a1-2)Gal(b1-3)[Fuc(a1-4)]GlcNAc(b1-2)Man(a1-6)]Man(b1-4)GlcNAc(b1-4)[Fuc(a1-6)]GlcNAc(b1-4)[Fuc(a1-6)]GlcNAc
How it was run: as §1

[17] = target: Fuc(a1-2)Gal(b1-3)[Fuc(a1-4)]GlcNAc(b1-3)[Fuc(a1-3)[Gal(b1-4)]GlcNAc(b1-6)]Gal(b1-4)Glc
How it was run: as §1

[18] = target: Fuc(a1-2)Gal(b1-3)[Fuc(a1-4)]GlcNAc(b1-3)[Gal(b1-4)GlcNAc(b1-6)]Gal(b1-4)Glc
How it was run: as §1

Fuc(a1-2)Gal(b1-4)Glc = target: Fuc(a1-2)Gal(b1-4)Glc
How it was run: as §1

Fuc(a1-2)Gal(b1-4)Glc6S = target: Fuc(a1-2)Gal(b1-4)Glc6S
How it was run: as §1

Fuc(a1-2)Gal(b1-4)GlcNAc = target: Fuc(a1-2)Gal(b1-4)GlcNAc
How it was run: as §1

[19] = target: Fuc(a1-2)Gal(b1-4)GlcNAc(b1-2)Man
How it was run: as §1

[20] = target: Fuc(a1-2)Gal(b1-4)GlcNAc(b1-2)Man(a1-3)[Fuc(a1-2)Gal(b1-4)GlcNAc(b1-2)Man(a1-6)]Man(b1-4)GlcNAc(b1-4)GlcNAc
How it was run: as §1

[21] = target: Fuc(a1-2)Gal(b1-4)GlcNAc(b1-2)Man(a1-3)[Fuc(a1-2)Gal(b1-4)GlcNAc(b1-2)Man(a1-6)]Man(b1-4)GlcNAc(b1-4)[Fuc(a1-6)]GlcNAc
How it was run: as §1

[22] = target: Fuc(a1-2)Gal(b1-4)GlcNAc(b1-2)[Fuc(a1-2)Gal(b1-4)GlcNAc(b1-4)]Man(a1-3)[Fuc(a1-2)Gal(b1-4)GlcNAc(b1-2)Man(a1-6)]Man(b1-4)GlcNAc(b1-4)GlcNAc
How it was run: as §1

[23] = target: Fuc(a1-2)Gal(b1-4)GlcNAc(b1-3)Gal(b1-4)GlcNAc
How it was run: as §1

[24] = target: Fuc(a1-2)Gal(b1-4)GlcNAc(b1-3)Gal(b1-4)GlcNAc(b1-2)Man(a1-3)[Fuc(a1-2)Gal(b1-4)GlcNAc(b1-3)Gal(b1-4)GlcNAc(b1-2)Man(a1-6)]Man(b1-4)GlcNAc(b1-4)GlcNAc
How it was run: as §1

B1: ArathEULS3 TAP (Arabidopsis thaliana) (protein)
chain: IDENLYFQGGSMDEKTTGWRGGHVVEGLAGELEQLRARLEHHPQGQREPGGGGSLEITSLYKKAGFMEHHHQHHRHHQRDDGEDDRQSFGVPPPHVDAPPQPHGLYQSQPHFDPYAPTPQAPAPYRSETQFEPHAPPPYRSEPYFETPAPPPSFGHVSHVGHQSPNESYPPEHHRYGGYQQPSNSLLESHGDHSGVTHVAHHSSNQPQSSSGVYHKPDENRLPDNLAGLAGRATVKVYSKAEPNYNLTIRDGKVILAPADPSDEAQHWYKDEKYSTKVKDADGHPCFALVNKATGEAMKHSVGATHPVHLIRYVPDKLDESVLWTESKDFGDGYRTIRMVNNTRLNVDAYHGDSKSGGVRDGTTIVLWDWNKGDNQLWKIFPF
glycan array binding signal (z-score) (Fuc(a1-2)Gal): 1.07 | glycan array binding signal (z-score) (Fuc(a1-2)Gal(b1-3)GalNAc): -0.462 | glycan array binding signal (z-score) [1]: -1.24 | glycan array binding signal (z-score) [2]: -0.451 | glycan array binding signal (z-score) [3]: -1.31 | glycan array binding signal (z-score) [4]: 0.136 | glycan array binding signal (z-score) [5]: 1.75 | glycan array binding signal (z-score) (Fuc(a1-2)Gal(b1-3)GlcNAc): 0.613 | glycan array binding signal (z-score) [6]: -0.403 | glycan array binding signal (z-score) [7]: 1.36 | glycan array binding signal (z-score) [8]: -0.174 | glycan array binding signal (z-score) [9]: 0.099 | glycan array binding signal (z-score) [10]: -0.858 | glycan array binding signal (z-score) [11]: 0.631 | glycan array binding signal (z-score) [12]: -1.08 | glycan array binding signal (z-score) [13]: 1.8 | glycan array binding signal (z-score) [14]: -0.439 | glycan array binding signal (z-score) [15]: -0.065 | glycan array binding signal (z-score) [16]: -0.278 | glycan array binding signal (z-score) [17]: -1 | glycan array binding signal (z-score) [18]: -0.898 | glycan array binding signal (z-score) (Fuc(a1-2)Gal(b1-4)Glc): -0.52 | glycan array binding signal (z-score) (Fuc(a1-2)Gal(b1-4)Glc6S): 0.624 | glycan array binding signal (z-score) (Fuc(a1-2)Gal(b1-4)GlcNAc): 0.315 | glycan array binding signal (z-score) [19]: -0.304 | glycan array binding signal (z-score) [20]: -0.08 | glycan array binding signal (z-score) [21]: -0.355 | glycan array binding signal (z-score) [22]: 0.023 | glycan array binding signal (z-score) [23]: -0.473 | glycan array binding signal (z-score) [24]: 2.35
